A short description of the data set: peptide synthesis. Particulars: late stage modification step.

In turn, “cyclo-[(3R,4R,5S)-4-(hydroxy)-3-methyl-5-(methylamino)-1-N-morpholino-hexanoic acid-(O-methyl-Thr)-Sar-MeLeu-Leu-MeLeu-Ala-D-Hiv-MeLeu-Leu-MeVal]” yielded a step yield of 43%. For “Cyclo-(MeBmt-(O-methyl-Thr)-Sar-MeLeu-Leu-MeLeu-Ala-D-Hiv-MeLeu-Leu-MeVal)”, the step yield is 87%.

The values are drawn from patent US9382295B2 (Cypralis Limited, priority 2012, dated 2016).
